These are literature values, as cited in patent publication US20230172920A1, “DOSING REGIMEN FOR TREATING A DISEASE MODULATED BY CSF-1R” (Novartis AG, priority 2020, published 2023).

Chains of the proteins cited; added tags and fusions are not shown.
UniProt P08183, whole entry: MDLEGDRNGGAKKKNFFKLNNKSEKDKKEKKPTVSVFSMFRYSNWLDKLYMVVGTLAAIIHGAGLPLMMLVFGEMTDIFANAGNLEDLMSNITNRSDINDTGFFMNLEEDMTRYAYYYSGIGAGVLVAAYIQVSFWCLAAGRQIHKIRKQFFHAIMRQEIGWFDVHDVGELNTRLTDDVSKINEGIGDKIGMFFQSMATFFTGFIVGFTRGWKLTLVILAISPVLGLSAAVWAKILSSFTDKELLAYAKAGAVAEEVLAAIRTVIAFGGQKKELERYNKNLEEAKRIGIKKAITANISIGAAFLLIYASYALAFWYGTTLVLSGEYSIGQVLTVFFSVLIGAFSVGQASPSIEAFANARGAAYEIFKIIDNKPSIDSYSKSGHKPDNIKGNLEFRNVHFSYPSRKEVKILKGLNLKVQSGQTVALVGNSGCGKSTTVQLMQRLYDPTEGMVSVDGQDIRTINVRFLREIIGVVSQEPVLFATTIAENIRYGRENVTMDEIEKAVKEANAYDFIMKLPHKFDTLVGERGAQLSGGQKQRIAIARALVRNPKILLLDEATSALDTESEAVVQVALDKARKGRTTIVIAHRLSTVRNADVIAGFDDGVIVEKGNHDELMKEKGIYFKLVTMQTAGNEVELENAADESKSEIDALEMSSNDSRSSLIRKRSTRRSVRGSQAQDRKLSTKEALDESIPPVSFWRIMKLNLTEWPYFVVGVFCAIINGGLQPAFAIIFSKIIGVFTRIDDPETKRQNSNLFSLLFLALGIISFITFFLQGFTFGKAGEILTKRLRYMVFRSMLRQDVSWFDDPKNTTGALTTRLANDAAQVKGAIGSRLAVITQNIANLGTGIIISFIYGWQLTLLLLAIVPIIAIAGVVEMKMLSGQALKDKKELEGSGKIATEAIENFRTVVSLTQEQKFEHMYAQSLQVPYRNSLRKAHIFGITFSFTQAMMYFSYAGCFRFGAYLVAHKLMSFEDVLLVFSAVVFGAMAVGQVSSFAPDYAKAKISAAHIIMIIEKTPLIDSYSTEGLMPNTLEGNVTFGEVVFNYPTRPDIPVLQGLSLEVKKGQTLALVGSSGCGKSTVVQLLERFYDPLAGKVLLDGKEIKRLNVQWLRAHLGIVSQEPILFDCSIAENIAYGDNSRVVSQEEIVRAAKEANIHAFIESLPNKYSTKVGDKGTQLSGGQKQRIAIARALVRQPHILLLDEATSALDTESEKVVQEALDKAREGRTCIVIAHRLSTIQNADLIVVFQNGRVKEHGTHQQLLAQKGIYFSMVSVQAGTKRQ
UniProt Q9UNQ0, whole entry, species assumed: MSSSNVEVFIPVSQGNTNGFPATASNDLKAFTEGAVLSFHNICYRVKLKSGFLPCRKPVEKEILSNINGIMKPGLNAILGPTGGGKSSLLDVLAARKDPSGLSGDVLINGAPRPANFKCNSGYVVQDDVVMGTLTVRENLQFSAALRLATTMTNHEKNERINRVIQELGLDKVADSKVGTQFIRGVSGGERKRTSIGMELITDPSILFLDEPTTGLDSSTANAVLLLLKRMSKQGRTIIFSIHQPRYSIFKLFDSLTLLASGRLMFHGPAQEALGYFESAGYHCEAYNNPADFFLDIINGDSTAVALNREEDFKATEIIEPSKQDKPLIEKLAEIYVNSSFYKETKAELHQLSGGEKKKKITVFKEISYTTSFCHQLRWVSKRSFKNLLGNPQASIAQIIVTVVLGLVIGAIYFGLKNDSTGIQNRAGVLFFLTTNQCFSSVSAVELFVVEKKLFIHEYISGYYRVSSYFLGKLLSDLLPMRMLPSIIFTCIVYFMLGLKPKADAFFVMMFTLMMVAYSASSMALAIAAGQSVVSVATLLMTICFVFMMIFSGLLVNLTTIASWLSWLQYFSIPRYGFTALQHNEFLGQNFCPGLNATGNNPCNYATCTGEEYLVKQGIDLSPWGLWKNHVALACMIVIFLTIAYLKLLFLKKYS

The target in one data set is P-glycoprotein (P-gp) (Homo sapiens, UniProt P08183). Conditions: Milane et al 2009; cited from earlier work.
Data set [1] has as its target breast cancer resistance protein (BCRP) (Homo sapiens, UniProt Q9UNQ0). Conditions: Milane et al 2009; cited from earlier work.

Consider `Nc1nc2ccc(OC(F)(F)F)cc2s1` [riluzole], for which the transporter substrate result (at P-glycoprotein (P-gp); in data set [1]) was “substrate” throughout.
